Laboratory results as given in US20020137715.
A negative result means that nothing was seen under these conditions. For part of these data: Where cells or extracts were used, other partners may take part.

The chains behind the UniProt entries cited, without tags or fusion partners. Residues count along the entry.
UniProt O89090, 2-784: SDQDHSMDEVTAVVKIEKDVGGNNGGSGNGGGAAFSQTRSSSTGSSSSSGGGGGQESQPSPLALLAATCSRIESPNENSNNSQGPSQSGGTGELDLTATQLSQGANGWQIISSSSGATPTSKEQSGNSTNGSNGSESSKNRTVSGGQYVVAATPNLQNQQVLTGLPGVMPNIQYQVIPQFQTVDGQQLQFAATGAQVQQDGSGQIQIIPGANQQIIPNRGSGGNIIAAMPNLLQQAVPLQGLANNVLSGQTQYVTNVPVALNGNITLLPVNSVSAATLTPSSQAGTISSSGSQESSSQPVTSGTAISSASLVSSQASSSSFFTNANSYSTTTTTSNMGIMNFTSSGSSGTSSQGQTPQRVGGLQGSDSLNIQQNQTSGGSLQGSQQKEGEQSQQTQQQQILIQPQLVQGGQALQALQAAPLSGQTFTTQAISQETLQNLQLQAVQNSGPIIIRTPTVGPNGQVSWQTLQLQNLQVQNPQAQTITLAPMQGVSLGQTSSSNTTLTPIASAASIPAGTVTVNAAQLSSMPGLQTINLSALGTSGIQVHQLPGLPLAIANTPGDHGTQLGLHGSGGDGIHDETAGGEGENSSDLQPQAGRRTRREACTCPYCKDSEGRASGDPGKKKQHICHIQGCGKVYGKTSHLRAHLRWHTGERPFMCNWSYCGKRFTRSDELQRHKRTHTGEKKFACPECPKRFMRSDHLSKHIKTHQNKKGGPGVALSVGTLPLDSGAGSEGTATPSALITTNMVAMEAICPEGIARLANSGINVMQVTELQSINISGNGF

Columns and labels:
Sp1 [1] = molecular target: Sp1 (UniProt O89090); experiment: EMSA; conditions: protein details: endogenous, NIH 3T3 nuclear extract
Sp1 [2] = molecular target: Sp1 (UniProt O89090); experiment: activity in cells; conditions: mutant decoy in vivo, no effect on COL1A2 promoter activity; protein in cells; protein details: endogenous, skin of COL1A2/lux transgenic mice; variant of consensus Sp1 oligonucleotide (decoy)

Sequence | binding result (Sp1 [1]; radiolabeled probe, complex supershifted by anti-Sp1 antibody, about 2% of control complex in antisense clone B, native 4% acrylamide gel, protein in an …) | activity on this sequence (Sp1 [2]) | binding result (Sp1 [1]; stated incapable of binding Sp1 as determined in EMSA, Sp1 source for this EMSA not stated, protein in an extract, variant of consensus Sp1 oligonucleotide (decoy))
ATTCGATCGGGGCGGGGCGAGC (double strand) [consensus Sp1 oligonucleotide (decoy)] | binds | – | –
ATTCGATCGTAGCGATGCGAGC (double strand) [mSp1 mutant oligonucleotide] | – | not active | no binding
